Assay results: US20150376286A1
Results are given in words; binding and its absence hold for the method and conditions named. Some entries that bind do so weakly or less than the wild type.

The chains behind the UniProt entries cited, without tags or fusion partners. Where a name states a change or a piece, a line headed by the entry shows the natural chain unless it says otherwise.
UniProt Q16602: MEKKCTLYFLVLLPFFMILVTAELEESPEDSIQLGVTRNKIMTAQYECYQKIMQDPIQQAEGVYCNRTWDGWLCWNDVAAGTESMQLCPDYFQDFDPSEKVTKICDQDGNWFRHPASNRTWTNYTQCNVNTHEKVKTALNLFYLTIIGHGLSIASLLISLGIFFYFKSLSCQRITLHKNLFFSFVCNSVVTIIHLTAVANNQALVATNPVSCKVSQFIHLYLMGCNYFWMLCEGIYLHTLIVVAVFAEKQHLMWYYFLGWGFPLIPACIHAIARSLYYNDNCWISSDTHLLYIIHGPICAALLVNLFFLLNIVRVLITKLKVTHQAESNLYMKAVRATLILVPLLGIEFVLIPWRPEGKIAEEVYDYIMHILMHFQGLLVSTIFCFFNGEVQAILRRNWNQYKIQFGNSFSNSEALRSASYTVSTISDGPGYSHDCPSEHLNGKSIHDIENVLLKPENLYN

Target: human CGRP receptor (CRLR + RAMP1) (human) (UniProt Q16602)
Experiment: FACS staining of transfected cells

binding: binds
Binder: WVTHRLAGLLSRSGGVVRCNFVPTDVGPFAF (N-terminal acetyl (Ac-), C-terminal amide (-NH2), Alexa 647 label) [Alexa 647-labeled CGRP8-37 peptide analog]
